Data taken from PMC8563733, “The transcriptional corepressor CtBP2 serves as a metabolite sensor orchestrating hepatic glucose and lipid homeostasis” (Nature Communications, 2021).
These are yes or no findings as the source states them, for the method shown. For some assays here: In cells and extracts the contact can be indirect. Some entries that bind do so weakly or less than the wild type.

Sequences of proteins named here, by UniProt entry; tags and fusion partners are left off. A change or cut given only in a name is not applied to a line headed by its entry. A line that says so, or that is headed by a name, gives the form on record, which may keep a tag or linker.
UniProt Q9R1E0: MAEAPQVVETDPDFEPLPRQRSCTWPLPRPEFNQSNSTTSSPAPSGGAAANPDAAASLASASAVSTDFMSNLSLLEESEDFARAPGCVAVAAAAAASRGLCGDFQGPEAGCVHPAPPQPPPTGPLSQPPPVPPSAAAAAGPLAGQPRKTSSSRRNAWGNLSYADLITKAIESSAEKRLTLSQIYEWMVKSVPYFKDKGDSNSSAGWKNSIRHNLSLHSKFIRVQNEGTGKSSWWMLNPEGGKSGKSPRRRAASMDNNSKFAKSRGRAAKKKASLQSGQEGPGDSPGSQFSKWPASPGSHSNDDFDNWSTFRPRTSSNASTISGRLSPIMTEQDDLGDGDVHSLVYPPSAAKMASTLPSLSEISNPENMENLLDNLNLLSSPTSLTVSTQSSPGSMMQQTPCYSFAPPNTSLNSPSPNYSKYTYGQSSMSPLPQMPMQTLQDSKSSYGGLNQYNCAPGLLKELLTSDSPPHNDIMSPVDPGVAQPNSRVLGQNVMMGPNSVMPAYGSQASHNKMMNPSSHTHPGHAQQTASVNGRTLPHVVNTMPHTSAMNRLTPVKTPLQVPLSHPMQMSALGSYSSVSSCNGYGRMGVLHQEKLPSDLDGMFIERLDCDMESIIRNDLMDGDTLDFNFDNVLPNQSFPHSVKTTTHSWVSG
purified recombinant △DB FoxO1 mutant (Q9R1E0, form named): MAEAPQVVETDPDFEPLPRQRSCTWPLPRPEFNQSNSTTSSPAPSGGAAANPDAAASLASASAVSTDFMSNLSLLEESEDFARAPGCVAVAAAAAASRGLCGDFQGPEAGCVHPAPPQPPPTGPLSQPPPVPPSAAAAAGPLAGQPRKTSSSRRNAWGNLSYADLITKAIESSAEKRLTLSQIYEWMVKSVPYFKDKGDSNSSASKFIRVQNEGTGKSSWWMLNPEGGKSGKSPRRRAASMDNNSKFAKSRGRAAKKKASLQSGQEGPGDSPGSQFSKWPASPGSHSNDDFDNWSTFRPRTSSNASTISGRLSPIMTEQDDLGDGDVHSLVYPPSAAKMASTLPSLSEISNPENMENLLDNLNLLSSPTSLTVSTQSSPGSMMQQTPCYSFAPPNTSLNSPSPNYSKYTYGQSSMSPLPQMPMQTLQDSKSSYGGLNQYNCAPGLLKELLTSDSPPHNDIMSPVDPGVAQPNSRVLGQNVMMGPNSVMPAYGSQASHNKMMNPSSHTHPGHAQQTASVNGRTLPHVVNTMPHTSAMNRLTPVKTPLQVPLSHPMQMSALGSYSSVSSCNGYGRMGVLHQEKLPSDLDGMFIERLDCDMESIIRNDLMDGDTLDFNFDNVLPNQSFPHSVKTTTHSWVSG
UniProt Q12778: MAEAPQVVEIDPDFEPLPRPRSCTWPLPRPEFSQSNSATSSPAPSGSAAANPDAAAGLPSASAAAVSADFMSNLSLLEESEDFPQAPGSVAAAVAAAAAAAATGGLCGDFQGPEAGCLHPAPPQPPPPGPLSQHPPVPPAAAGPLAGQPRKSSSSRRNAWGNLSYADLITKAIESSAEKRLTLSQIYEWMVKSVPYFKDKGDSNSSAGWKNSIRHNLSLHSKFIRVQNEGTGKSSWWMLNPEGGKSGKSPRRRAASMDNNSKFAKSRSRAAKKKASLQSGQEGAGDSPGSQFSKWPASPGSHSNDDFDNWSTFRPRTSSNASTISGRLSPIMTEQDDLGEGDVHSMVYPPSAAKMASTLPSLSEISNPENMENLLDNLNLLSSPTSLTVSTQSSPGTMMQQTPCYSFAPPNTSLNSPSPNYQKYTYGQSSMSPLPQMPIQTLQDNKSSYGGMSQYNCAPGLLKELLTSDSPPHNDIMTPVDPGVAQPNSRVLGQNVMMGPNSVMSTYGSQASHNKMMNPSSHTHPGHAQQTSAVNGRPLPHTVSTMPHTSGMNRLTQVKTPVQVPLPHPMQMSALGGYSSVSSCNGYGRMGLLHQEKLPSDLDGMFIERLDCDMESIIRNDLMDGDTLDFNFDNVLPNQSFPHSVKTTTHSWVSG
UniProt P56546: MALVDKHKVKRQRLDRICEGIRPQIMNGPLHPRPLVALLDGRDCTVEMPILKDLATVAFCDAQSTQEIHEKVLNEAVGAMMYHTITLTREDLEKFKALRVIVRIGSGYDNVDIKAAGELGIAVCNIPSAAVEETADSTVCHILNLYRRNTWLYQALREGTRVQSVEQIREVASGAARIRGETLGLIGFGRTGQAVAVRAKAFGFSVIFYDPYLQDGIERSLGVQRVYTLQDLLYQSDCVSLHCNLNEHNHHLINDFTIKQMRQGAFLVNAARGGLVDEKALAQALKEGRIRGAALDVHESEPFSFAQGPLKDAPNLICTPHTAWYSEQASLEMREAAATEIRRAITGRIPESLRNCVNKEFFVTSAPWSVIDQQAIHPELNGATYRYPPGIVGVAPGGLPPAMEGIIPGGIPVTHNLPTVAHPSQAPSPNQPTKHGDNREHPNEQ
UniProt P35222: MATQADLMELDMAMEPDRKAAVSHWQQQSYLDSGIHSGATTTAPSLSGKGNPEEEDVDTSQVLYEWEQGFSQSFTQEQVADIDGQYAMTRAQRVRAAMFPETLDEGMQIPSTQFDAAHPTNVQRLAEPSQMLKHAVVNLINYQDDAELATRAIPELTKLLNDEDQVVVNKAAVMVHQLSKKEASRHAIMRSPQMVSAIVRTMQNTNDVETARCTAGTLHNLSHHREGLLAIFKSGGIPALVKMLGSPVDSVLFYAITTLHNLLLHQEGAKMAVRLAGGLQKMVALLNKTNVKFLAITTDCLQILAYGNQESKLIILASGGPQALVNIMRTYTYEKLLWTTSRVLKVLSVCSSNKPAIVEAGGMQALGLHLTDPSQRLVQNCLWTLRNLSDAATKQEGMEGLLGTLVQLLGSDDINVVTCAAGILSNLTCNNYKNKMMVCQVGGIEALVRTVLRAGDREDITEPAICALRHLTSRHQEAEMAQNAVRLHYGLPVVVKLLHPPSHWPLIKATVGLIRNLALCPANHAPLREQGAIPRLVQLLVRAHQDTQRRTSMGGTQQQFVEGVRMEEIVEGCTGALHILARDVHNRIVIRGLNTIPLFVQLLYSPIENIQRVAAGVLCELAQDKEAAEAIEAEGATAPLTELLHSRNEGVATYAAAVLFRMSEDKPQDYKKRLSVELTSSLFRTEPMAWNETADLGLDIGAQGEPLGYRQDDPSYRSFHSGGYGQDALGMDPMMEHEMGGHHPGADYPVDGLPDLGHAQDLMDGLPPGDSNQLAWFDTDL

Key:
FLAG wild-type FoxO1 [1] = target: FLAG wild-type FoxO1 (UniProt Q9R1E0); experiment: co-IP; HEK293 cells transfected with FLAG-FoxO1 (wild type or mutated) and CtBP1 or CtBP2; FLAG M2 magnetic beads, buffer A with 0.5% NP40, 4 h at 4 °C, eluted with 3x FLAG peptide; in some panels NADH, oleoyl-CoA, acetyl-CoA or sodium oleate added to the lysates (8 h at 4 °C), or cells treated with lactate/pyruvate, koningic acid or palmitate-BSA with ACSL1
[2] = target: Forkhead box O1 (FoxO1), endogenous, mouse (mouse (endogenous in primary hepatocytes and liver)) (UniProt Q9R1E0); experiment: co-IP; liver of diet-induced obese mice after adenoviral expression of CtBP2 (wild type or A201H); CtBP2/FoxO1 complex
[3] = target: NR5A2(LRH-1), exogenously expressed (UniProt P45448); experiment: co-IP; exogenous expression of CtBP2, NR5A2(LRH-1) and SREBP1; cells and precipitated protein not stated (Supplementary Fig. 4d)
[4] = target: NR5A2(LRH-1), exogenously expressed (UniProt P45448); experiment: co-IP; HEK293 cells expressing CtBP2 and NR5A2(LRH-1), wild type or mutated in the PSDL motif; which protein was precipitated not given
[5] = target: FoxO1 with large BiT fused to its C-terminal (UniProt Q9R1E0); experiment: split reporter; NanoLuciferase Binary Technology in living HEK293 cells stably expressing CtBP2-small BiT and FoxO1-large BiT; stimulated with 50 mM lactate, followed over 30 min
[6] = target: FoxO1, endogenous, human liver (human (endogenous in liver)) (UniProt Q12778); experiment: co-IP; endogenous proteins of human liver autopsy specimens, lean and obese subjects
[7] = target: Forkhead box O1 (FoxO1), endogenous, mouse (mouse (endogenous in primary hepatocytes and liver)) (UniProt Q9R1E0); experiment: co-IP; endogenous proteins of mouse liver homogenates; antibodies cross-linked to Protein G dynabeads, buffer A with 0.5% NP40, 4 h at 4 °C; normal mice (fasted/fed, glucagon, glucocorticoid, insulin, glucose, NR5A2 knock-down, oleoyl-CoA added to lysates), genetically obese and diet-induced obese mice
[8] = target: T1, zinc-finger protein FOG family member 1 (ZFPM1), endogenous, mouse liver (mouse (endogenous in liver)) (UniProt O35615); experiment: as above
T1 sequence: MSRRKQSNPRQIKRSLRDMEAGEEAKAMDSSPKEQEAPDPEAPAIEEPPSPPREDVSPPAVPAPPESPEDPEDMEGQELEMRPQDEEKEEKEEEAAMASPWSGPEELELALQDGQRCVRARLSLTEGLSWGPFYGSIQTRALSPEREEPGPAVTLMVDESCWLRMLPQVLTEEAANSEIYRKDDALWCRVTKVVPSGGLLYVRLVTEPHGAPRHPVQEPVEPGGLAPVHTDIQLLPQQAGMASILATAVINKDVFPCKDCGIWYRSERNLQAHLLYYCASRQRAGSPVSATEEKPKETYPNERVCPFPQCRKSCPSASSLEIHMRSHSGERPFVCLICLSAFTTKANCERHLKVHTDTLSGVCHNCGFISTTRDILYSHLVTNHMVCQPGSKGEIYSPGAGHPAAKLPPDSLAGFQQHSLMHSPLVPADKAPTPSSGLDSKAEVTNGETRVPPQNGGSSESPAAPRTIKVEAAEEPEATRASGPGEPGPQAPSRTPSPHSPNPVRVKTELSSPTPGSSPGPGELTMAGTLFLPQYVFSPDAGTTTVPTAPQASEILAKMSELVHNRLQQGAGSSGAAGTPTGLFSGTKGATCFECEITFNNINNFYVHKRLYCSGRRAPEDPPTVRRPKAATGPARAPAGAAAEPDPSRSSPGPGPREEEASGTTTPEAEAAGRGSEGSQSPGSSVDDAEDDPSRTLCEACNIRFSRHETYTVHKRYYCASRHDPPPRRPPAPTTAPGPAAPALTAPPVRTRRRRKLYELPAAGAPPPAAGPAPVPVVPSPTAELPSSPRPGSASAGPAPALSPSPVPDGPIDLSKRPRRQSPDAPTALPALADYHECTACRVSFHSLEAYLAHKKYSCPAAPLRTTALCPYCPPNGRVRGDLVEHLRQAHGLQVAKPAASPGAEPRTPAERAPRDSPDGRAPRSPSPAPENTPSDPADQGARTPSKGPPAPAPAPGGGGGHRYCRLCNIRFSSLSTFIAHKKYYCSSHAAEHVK

[9] = target: differentially tagged CtBP2 (FLAG-CtBP2 and CtBP2-HA), ALA201HIS mutant (UniProt P56545); experiment: co-IP; differentially tagged CtBP2 (FLAG-CtBP2 and CtBP2-HA) co-expressed in cells; dimer formation
FLAG wild-type FoxO1 [10] = target: FLAG wild-type FoxO1 (UniProt Q9R1E0); experiment: pull-down; purified recombinant proteins incubated with different concentrations of metabolites (NADH 0 or 10 μM; oleoyl-CoA or acetyl-CoA 0, 15, 50 μM) for 6–8 h at room temperature, read by blot; how the complex was captured is not stated; both purified
[11] = target: purified recombinant △DB FoxO1 mutant (UniProt Q9R1E0); experiment: as above

For “ALA201HIS mutant CtBP2 (from UniProt P56545 1-445)”, the binding (FLAG wild-type FoxO1 [1]) was “binds”.
“ALA201HIS mutant CtBP2 expressed in the liver of diet-induced obese mice by adenovirus (from UniProt P56545 1-445)” was tested, and the binding [2] was “binds”.
“C-terminal binding protein 2 (CtBP2) (from UniProt P56545 1-445)” was tested, and the binding [3] was “binds”, the binding [4] was “binds” and the binding (FLAG wild-type FoxO1 [1]) was “binds”.
In the case of “CtBP2 exogenously expressed in the liver of diet-induced obese mice by adenoviral transduction (AdCtBP2) (from UniProt P56545 1-445)”, the binding [2] is reported as “binds”.
In the case of “CtBP2 with small BiT fused to its C-terminal (from UniProt P56545 1-445)”, the binding [5] is reported as “binds”.
“CtBP2, endogenous, human liver (from UniProt P56545 1-445)” was tested, and the binding [6] was “binds”.
For “CtBP2, endogenous, mouse liver (from UniProt P56546 1-445)”, the binding [7] was “binds” and the binding [8] was “binds”.
For “differentially tagged CtBP2 (FLAG-CtBP2 and CtBP2-HA), ALA201HIS mutant (from UniProt P56545 1-445)”, the binding [9] was “binds”.
With “wild-type CtBP2-HA, purified recombinant (from UniProt P56545 1-445)” the binding (FLAG wild-type FoxO1 [10]) was “binds” and the binding [11] was “binds”.
With β-catenin (from UniProt P35222 1-781) the binding (FLAG wild-type FoxO1 [1]) was “binds”.
